Test results as given in publication PMC3224144.
Results are given in words; binding and its absence hold for the method and conditions named. Some entries that bind do so weakly or less than the wild type.

Protein sequences, listed by entry. Tags and fused reporters are not part of them.
UniProt P03734: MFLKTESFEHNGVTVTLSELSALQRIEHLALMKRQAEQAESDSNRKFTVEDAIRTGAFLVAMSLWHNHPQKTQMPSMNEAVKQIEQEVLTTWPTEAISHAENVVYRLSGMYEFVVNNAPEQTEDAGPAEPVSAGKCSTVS
UniProt P03769: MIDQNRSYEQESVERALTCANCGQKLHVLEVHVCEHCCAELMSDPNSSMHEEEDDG
UniProt P03740: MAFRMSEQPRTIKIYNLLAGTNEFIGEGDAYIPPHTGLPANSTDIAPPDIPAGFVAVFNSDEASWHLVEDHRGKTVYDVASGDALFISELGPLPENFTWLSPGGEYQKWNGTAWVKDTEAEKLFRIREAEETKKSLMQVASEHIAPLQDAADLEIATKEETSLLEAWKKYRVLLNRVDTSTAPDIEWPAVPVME
UniProt P03768: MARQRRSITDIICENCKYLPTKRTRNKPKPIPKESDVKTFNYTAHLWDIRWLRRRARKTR
UniProt Q37935: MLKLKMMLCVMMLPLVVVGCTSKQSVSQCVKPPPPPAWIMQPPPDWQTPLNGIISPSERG
UniProt P03729: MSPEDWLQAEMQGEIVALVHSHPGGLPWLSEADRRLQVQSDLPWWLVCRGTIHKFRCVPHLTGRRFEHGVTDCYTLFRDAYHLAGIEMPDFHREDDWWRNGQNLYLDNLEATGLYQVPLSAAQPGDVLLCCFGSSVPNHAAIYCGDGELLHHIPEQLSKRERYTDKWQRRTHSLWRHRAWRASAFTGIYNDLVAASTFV

Tests used:
Test in all cases: two-hybrid; array-based yeast two-hybrid screens; each protein as bait (Gal4 DNA-binding domain) and as prey (Gal4 activation domain), N- and C-terminal fusions; bait-prey vector pairs pDEST32-pDEST22, pGBKT7g-pGADT7g, pGBKT7g-pGADCg, pGBKCg-pGADCg, pGBKCg-pGADT7g; ten configurations a pair; positives retested
[1] = biological target: T1, DNA packaging protein A (bacteriophage lambda) (UniProt P03708)
T1 sequence: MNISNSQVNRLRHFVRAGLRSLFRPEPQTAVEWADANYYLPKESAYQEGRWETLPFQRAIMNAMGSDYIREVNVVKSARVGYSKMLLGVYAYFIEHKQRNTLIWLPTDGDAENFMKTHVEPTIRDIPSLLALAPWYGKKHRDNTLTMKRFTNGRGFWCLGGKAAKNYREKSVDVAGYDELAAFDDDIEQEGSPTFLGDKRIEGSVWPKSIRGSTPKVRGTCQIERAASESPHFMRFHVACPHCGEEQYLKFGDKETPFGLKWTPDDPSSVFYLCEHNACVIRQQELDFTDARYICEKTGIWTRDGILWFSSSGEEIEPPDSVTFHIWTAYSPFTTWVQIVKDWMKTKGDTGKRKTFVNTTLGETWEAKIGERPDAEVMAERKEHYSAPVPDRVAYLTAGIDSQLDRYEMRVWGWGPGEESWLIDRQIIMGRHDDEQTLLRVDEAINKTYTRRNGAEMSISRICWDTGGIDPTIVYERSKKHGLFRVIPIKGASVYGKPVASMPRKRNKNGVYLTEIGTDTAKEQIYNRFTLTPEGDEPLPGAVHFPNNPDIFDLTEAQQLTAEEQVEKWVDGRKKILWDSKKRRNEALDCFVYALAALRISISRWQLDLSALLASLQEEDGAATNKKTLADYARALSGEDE

M (bacteriophage lambda) = biological target: T2, M (bacteriophage lambda) (UniProt P03737)
T2 sequence: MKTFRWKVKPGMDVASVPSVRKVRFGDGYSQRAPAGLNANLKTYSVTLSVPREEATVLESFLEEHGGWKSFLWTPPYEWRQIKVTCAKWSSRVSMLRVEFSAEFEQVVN

U (bacteriophage lambda) = biological target: T3, U (bacteriophage lambda) (UniProt P03732)
T3 sequence: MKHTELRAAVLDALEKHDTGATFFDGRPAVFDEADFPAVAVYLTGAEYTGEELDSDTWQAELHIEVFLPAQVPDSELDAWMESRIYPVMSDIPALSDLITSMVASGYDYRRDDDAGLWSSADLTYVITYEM

[2] = biological target: T4, Integrase (Int) (bacteriophage lambda) (UniProt P03700)
T4 sequence: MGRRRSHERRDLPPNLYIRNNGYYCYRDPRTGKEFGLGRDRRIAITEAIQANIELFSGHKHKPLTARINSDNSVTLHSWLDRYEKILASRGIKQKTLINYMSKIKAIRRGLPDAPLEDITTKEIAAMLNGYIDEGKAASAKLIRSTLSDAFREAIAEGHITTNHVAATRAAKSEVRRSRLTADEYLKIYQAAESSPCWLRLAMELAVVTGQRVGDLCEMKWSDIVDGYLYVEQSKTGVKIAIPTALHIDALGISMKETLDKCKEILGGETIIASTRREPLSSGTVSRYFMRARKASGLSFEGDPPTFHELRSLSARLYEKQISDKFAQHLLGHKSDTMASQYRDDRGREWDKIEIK

[3] = biological target: T5, Nu1 (bacteriophage lambda) (UniProt P03707)
T5 sequence: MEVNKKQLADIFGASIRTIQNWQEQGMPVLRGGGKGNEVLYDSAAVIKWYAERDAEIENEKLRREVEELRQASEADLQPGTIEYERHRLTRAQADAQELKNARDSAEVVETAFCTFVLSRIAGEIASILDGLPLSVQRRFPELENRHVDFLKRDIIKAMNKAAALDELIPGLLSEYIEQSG

[4] = biological target: T6, NinD (bacteriophage lambda) (UniProt P03767)
T6 sequence: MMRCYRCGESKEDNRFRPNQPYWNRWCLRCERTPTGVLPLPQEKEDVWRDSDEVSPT

[5] = biological target: G, a tail protein (bacteriophage lambda) (UniProt P03734)
[6] = biological target: T7, antiterminator N (bacteriophage lambda) (UniProt P03045)
T7 sequence: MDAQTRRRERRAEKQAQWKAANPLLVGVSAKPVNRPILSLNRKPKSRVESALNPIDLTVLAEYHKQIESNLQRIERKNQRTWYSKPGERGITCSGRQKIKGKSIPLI

For NinF (from UniProt P03769 1-56), the binding [1] was “binds”, the binding (M (bacteriophage lambda)) was “binds” and the binding (U (bacteriophage lambda)) was “binds”.

With “tail fiber protein Tfa (from UniProt P03740 1-194)” the binding [2] was “binds” and the binding [3] was “binds”.

In the case of NinE (from UniProt P03768 1-60), the binding (U (bacteriophage lambda)) is reported as “binds”.

Rz1 (from UniProt Q37935 1-60) was tested, and the binding (M (bacteriophage lambda)) was “binds”.

For K (from UniProt P03729 1-199), the binding [4] was “binds”.

B1: tape measure protein H (protein, UniProt P03736 1-853)
chain: MAEPVGDLVVDLSLDAARFDEQMARVRRHFSGTESDAKKTAAVVEQSLSRQALAAQKAGISVGQYKAAMRMLPAQFTDVATQLAGGQSPWLILLQQGGQVKDSFGGMIPMFRGLAGAITLPMVGATSLAVATGALAYAWYQGNSTLSDFNKTLVLSGNQAGLTADRMLVLSRAGQAAGLTFNQTSESLSALVKAGVSGEAQIASISQSVARFSSASGVEVDKVAEAFGKLTTDPTSGLTAMARQFHNVSAEQIAYVAQLQRSGDEAGALQAANEAATKGFDDQTRRLKENMGTLETWADRTARAFKSMWDAVLDIGRPDTAQEMLIKAEAAYKKADDIWNLRKDDYFVNDEARARYWDDREKARLALEAARKKAEQQTQQDKNAQQQSDTEASRLKYTEEAQKAYERLQTPLEKYTARQEELNKALKDGKILQADYNTLMAAAKKDYEATLKKPKQSSVKVSAGDRQEDSAHAALLTLQAELRTLEKHAGANEKISQQRRDLWKAESQFAVLEEAAQRRQLSAQEKSLLAHKDETLEYKRQLAALGDKVTYQERLNALAQQADKFAQQQRAKRAAIDAKSRGLTDRQAEREATEQRLKEQYGDNPLALNNVMSEQKKTWAAEDQLRGNWMAGLKSGWSEWEESATDSMSQVKSAATQTFDGIAQNMAAMLTGSEQNWRSFTRSVLSMMTEILLKQAMVGIVGSIGSAIGGAVGGGASASGGTAIQAAAAKFHFATGGFTGTGGKYEPAGIVHRGEFVFTKEATSRIGVGNLYRLMRGYATGGYVGTPGSMADSRSQASGTFEQNNHVVINNDGTNGQIGPAALKAVYDMARKGARDEIQTQMRDGGLFSGGGR
B1 was tested, and the binding [5] was “binds”.

B2: Integrase (Int) (protein, UniProt P03700 1-356)
chain: T4 sequence
For B2, the binding [2] was “binds”.

B3: L (protein, UniProt P03738 1-232)
chain: MQDIRQETLNECTRAEQSASVVLWEIDLTEVGGERYFFCNEQNEKGEPVTWQGRQYQPYPIQGSGFELNGKGTSTRPTLTVSNLYGMVTGMAEDMQSLVGGTVVRRKVYARFLDAVNFVNGNSYADPEQEVISRWRIEQCSELSAVSASFVLSTPTETDGAVFPGRIMLANTCTWTYRGDECGYSGPAVADEYDQPTSDITKDKCSKCLSGCKFRNNVGNFGGFLSINKLSQ
For B3, the binding [6] was “binds”.

B4: Nu1 (protein, UniProt P03707 1-181)
chain: T5 sequence
With B4 the binding [1] was “binds”, the binding [3] was “binds” and the binding [6] was “binds”.

B5: Cro (protein, UniProt P03040 1-66)
chain: MEQRITLKDYAMRFGQTKTAKDLGVYQSAINKAIHAGRKIFLTINADGSVYAEEVKPFPSNKKTTA
B5 was tested, and the binding [4] was “binds”.

B6: R (protein, UniProt P03706 1-158)
chain: MVEINNQRKAFLDMLAWSEGTDNGRQKTRNHGYDVIVGGELFTDYSDHPRKLVTLNPKLKSTGAGRYQLLSRWWDAYRKQLGLKDFSPKSQDAVALQQIKERGALPMIDRGDIRQAIDRCSNIWASLPGAGYGQFEHKADSLIAKFKEAGGTVREIDV
B6 was tested, and the binding [3] was “binds”.

B7: NinB (protein, UniProt P03765 1-146)
chain: MKKLTFEIRSPAHQQNAIHAVQQILPDPTKPIVVTIQERNRSLDQNRKLWACLGDVSRQVEWHGRWLDAESWKCVFTAALKQQDVVPNLAGNGFVVIGQSTSRMRVGEFAELLELIQAFGTERGVKWSDEARLALEWKARWGDRAA
For B7, the binding (U (bacteriophage lambda)) was “binds”.

B8: U (protein, UniProt P03732 1-131)
chain: T3 sequence
With B8 the binding (U (bacteriophage lambda)) was “binds weakly”.

B9: excisionase (Xis) (protein, UniProt P03699 1-72)
chain: MYLTLQEWNARQRRPRSLETVRRWVRECRIFPPPVKDGREYLFHESAVKVDLNRPVTGGLLKRIRNGKKAKS
With B9 the binding (U (bacteriophage lambda)) was “binds”.
